± gives the standard deviation of the averaged measurements. This is one part of the list.
Compound: Nc1nc2c(ncn2[C@@H]2O[C@H](COP(=O)(O)OP(=O)(O)OP(=O)(O)O)[C@@H](O)[C@H]2O)c(=O)[nH]1 [guanosine triphosphate]
Experiment: NP40-soluble protein abundance relative to vehicle (solubility fold change) (ratio); higher = more soluble protein in presence of GTP
Procedure, shortened: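 Each value is a fold change relative to the detergent-processed vehicle, calculated per replicate from vsn-normalised intensities. Jurkat crude lysate received eight concentrations (0.1 to 10 mM) for 10 min at room temperature and 3 min at 37 °C, then was solubilised in 0.8% NP40 with benzonase (60 min, 4 °C). The ultracentrifuged supernatant was TMT-labelled and run by LC-MS/MS in three independent experiments.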

Sequences of proteins named here, by UniProt entry; tags and fusion partners are left off. A change or cut given only in a name is not applied to a line headed by its entry.
UniProt Q14004, whole entry, looked up: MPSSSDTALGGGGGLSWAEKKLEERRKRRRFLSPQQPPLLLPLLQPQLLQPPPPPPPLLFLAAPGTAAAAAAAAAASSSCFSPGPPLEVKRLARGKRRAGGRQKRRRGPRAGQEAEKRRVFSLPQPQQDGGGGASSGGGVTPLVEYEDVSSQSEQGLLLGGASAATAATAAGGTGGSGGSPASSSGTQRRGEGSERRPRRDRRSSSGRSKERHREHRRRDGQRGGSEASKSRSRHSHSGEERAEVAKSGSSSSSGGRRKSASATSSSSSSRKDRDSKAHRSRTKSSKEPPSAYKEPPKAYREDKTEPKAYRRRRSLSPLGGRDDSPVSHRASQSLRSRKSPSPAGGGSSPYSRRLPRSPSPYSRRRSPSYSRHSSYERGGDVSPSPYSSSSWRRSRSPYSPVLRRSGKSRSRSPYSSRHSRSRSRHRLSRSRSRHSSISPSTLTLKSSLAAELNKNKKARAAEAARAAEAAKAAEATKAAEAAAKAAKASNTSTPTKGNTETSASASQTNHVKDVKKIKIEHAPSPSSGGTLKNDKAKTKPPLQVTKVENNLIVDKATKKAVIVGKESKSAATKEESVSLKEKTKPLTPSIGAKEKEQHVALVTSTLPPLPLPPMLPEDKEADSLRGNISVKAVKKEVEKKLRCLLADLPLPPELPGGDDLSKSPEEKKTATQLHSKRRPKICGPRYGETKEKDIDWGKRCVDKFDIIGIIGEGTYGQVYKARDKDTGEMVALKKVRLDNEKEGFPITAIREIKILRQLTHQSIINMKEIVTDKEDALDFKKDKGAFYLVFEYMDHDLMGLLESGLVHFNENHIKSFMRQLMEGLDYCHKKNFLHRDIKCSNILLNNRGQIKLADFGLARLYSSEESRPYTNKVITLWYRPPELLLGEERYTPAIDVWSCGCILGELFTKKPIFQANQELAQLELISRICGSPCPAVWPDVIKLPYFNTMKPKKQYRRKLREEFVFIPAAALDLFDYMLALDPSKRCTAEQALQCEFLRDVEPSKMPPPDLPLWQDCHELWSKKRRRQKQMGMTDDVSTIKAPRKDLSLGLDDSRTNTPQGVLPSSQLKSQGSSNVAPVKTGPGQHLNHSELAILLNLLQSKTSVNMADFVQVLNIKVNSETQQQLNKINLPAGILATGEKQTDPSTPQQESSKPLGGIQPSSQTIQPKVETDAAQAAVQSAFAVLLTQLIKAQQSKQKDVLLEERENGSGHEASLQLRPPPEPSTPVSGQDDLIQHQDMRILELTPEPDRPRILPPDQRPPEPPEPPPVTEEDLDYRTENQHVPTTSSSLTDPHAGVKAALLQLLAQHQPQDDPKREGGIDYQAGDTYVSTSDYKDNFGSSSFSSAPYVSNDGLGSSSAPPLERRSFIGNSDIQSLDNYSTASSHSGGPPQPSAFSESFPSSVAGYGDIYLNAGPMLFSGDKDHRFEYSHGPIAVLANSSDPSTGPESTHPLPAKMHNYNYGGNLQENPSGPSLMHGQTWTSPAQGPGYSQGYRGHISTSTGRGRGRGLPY
UniProt Q14566: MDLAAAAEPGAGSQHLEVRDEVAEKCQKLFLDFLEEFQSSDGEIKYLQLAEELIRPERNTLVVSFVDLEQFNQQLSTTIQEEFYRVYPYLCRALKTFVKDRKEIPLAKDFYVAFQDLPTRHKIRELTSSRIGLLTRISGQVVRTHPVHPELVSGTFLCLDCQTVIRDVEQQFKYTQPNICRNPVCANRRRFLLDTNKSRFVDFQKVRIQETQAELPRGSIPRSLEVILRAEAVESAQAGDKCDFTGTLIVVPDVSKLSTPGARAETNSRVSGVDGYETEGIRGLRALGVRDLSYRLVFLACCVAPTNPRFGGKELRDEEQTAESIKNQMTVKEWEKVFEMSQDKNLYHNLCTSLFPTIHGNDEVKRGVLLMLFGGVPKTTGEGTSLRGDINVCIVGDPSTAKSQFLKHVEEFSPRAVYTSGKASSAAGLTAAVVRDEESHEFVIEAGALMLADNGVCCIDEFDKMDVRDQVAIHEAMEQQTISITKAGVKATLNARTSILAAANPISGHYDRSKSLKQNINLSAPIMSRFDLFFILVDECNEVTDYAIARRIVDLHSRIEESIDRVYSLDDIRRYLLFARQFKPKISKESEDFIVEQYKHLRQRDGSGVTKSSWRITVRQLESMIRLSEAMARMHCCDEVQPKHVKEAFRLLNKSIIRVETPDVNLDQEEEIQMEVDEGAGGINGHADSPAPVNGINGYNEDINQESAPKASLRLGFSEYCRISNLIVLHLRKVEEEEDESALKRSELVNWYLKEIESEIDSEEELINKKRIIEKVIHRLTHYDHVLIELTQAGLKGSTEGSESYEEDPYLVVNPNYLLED
UniProt Q00653: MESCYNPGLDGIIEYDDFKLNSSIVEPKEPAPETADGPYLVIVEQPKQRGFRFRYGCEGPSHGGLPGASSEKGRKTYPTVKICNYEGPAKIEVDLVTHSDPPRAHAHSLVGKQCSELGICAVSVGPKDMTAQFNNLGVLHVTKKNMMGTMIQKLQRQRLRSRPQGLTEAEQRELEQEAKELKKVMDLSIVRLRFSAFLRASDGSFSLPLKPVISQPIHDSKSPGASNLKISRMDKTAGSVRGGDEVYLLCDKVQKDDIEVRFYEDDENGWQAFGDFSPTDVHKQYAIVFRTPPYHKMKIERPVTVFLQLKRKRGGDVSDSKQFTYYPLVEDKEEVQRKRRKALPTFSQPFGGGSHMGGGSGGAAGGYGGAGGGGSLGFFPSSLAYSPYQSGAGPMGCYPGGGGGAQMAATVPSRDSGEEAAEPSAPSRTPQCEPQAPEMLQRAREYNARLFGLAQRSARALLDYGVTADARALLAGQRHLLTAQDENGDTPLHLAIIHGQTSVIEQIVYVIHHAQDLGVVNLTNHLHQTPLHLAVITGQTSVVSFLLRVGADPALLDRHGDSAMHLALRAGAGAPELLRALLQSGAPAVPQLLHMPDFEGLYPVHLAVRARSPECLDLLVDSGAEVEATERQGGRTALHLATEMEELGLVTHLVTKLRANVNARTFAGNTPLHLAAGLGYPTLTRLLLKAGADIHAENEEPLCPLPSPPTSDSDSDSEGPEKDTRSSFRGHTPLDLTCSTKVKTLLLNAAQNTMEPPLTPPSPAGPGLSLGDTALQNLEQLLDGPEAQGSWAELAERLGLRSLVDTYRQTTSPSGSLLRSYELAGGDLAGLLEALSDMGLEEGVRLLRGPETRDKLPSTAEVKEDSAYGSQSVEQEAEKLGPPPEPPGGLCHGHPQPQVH
UniProt Q14344, whole entry: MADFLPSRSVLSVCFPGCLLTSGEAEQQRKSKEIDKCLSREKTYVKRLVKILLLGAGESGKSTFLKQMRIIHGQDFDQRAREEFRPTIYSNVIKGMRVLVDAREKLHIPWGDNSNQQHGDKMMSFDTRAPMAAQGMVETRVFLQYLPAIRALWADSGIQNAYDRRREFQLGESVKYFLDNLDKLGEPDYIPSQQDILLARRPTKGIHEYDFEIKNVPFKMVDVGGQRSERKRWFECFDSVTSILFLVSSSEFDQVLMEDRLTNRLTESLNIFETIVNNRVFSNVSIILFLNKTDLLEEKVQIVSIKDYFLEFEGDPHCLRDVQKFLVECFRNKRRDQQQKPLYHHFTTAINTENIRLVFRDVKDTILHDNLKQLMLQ
UniProt Q13576: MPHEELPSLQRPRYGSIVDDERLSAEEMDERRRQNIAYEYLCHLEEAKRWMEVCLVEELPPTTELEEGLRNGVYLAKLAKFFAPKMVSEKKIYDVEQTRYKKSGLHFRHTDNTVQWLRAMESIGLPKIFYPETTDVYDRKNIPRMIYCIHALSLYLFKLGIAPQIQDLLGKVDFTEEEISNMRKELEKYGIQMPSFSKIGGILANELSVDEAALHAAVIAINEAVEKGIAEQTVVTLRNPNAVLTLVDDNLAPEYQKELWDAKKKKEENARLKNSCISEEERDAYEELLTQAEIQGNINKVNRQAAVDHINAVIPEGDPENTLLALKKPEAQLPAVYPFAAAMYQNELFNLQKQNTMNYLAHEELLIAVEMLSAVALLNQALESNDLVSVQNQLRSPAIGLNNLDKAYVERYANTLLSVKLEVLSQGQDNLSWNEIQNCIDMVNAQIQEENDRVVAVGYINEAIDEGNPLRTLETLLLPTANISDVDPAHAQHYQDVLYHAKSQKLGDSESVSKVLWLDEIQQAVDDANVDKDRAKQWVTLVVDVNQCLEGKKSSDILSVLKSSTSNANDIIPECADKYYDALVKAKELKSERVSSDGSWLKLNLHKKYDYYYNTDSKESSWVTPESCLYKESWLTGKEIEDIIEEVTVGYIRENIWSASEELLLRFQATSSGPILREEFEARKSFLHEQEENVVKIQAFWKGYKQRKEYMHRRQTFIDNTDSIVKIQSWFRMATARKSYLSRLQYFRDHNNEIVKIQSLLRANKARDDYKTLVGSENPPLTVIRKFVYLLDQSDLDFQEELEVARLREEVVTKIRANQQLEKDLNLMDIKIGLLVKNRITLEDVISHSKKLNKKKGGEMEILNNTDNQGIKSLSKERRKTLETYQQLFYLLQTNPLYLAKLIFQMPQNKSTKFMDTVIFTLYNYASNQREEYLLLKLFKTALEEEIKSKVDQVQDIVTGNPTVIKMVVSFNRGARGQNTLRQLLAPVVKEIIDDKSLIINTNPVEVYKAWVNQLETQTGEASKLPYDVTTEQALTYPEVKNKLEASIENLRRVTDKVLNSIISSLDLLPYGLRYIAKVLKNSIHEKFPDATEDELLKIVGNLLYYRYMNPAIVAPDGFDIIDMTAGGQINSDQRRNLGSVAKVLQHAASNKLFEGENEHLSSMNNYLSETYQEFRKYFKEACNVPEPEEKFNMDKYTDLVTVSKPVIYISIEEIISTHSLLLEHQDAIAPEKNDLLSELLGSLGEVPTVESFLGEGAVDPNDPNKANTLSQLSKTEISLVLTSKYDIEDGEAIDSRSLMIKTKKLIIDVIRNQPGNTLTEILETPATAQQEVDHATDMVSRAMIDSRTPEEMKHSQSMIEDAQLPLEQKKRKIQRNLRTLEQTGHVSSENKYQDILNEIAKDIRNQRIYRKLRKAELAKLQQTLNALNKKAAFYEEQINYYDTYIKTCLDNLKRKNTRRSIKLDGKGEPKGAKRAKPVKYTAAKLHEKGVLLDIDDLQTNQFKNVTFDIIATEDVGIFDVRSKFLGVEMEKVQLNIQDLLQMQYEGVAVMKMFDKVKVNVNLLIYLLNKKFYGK
UniProt Q08357: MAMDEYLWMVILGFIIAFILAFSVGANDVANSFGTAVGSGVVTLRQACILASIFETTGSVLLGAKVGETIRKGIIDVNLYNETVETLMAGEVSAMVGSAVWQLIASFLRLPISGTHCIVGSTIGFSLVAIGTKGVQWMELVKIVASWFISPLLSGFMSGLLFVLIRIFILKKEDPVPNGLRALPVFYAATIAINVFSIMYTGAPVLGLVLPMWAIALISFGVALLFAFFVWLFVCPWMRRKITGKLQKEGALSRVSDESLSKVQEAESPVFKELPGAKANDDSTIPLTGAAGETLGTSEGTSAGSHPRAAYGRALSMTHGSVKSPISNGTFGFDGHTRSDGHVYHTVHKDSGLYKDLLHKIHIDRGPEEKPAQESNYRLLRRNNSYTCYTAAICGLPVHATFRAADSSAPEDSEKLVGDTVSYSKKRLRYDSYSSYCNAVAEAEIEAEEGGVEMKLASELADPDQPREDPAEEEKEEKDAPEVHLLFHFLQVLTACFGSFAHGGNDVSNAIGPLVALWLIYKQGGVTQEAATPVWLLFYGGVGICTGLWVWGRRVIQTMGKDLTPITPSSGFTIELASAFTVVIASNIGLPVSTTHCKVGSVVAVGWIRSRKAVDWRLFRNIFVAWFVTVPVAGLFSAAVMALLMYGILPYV
UniProt Q09328: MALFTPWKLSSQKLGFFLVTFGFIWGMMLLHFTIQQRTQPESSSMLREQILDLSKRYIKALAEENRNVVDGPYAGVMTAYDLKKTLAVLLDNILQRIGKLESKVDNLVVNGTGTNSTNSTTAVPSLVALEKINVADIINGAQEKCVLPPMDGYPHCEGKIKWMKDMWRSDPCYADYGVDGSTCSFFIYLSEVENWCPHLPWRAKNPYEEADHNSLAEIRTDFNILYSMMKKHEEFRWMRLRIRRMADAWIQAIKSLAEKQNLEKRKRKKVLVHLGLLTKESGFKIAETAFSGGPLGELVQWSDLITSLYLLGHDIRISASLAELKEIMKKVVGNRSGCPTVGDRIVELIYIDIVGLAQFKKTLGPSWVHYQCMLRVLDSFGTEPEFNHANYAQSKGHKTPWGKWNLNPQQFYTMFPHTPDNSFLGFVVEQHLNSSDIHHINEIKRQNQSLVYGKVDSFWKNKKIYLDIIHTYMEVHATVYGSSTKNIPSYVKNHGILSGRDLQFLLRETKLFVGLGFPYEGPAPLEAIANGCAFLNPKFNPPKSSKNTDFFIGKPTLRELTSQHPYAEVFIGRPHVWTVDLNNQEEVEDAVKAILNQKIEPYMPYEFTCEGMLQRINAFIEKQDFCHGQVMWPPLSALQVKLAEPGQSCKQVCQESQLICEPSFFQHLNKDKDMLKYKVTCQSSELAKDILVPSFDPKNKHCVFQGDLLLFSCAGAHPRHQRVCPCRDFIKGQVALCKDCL

Target	NP40-soluble protein abundance (concentration: 0.1mM)	NP40-soluble protein abundance (concentration: 0.5mM)	NP40-soluble protein abundance (concentration: 1mM)	NP40-soluble protein abundance (concentration: 2mM)	NP40-soluble protein abundance (concentration: 4mM)	NP40-soluble protein abundance (concentration: 6mM)	NP40-soluble protein abundance (concentration: 8mM)	NP40-soluble protein abundance (concentration: 10mM)
UniProt Q14004 and related entries	1.02 ± 0.037	1.107 ± 0.0034	1.16 ± 0.032	1.18 ± 0.042	1.2 ± 0.043	1.21 ± 0.057	1.24 ± 0.099	1.22 ± 0.12
MCM6 (UniProt Q14566)	1.05 ± 0.1	1.08 ± 0.15	0.982 ± 0.11	1.02 ± 0.17	0.99 ± 0.14	1.01 ± 0.16	0.944 ± 0.081	0.921 ± 0.11
PDIA5 (UniProt Q14554)	1.03 ± 0.041	1 ± 0.047	0.964 ± 0.064	0.968 ± 0.07	1 ± 0.072	0.993 ± 0.064	0.995 ± 0.037	0.976 ± 0.07
UniProt Q13588 and related entries	1.06 ± 0.061	1.05 ± 0.035	0.937 ± 0.058	0.968 ± 0.085	0.992 ± 0.051	0.966 ± 0.044	0.946 ± 0.025	0.929 ± 0.099
UniProt Q13033-2|H0YJT2	0.991 ± 0.014	1.04 ± 0.016	1.04 ± 0.038	1.02 ± 0.071	1.01 ± 0.071	1.03 ± 0.076	1.08 ± 0.12	1.06 ± 0.12
SF3A3 (UniProt Q12874)	0.979 ± 0.041	1.04 ± 0.066	1.04 ± 0.05	1.02 ± 0.075	1.04 ± 0.068	1.06 ± 0.062	1.05 ± 0.083	1.04 ± 0.092
UniProt Q02252 and related entries	0.988 ± 0.021	0.981 ± 0.023	0.964 ± 0.029	0.93 ± 0.026	0.919 ± 0.041	0.924 ± 0.021	0.901 ± 0.056	0.894 ± 0.074
UniProt Q02809 and related entries	1.01 ± 0.082	1.05 ± 0.029	0.95 ± 0.045	1.03 ± 0.067	1.03 ± 0.098	0.996 ± 0.075	0.941 ± 0.035	1.01 ± 0.056
TARBP1 (UniProt Q13395)	0.976 ± 0.079	0.968 ± 0.12	0.959 ± 0.1	1.01 ± 0.033	0.929 ± 0.081	0.951 ± 0.055	0.906 ± 0.12	0.897 ± 0.071
UniProt Q00653 and related entries	0.995 ± 0.032	0.997 ± 0.021	0.959 ± 0.013	0.955 ± 0.037	0.96 ± 0.048	0.931 ± 0.016	0.966 ± 0.04	0.94 ± 0.045
GNA13 (UniProt Q14344)	1.02 ± 0.03	1.03 ± 0.072	0.899 ± 0.013	0.912 ± 0.043	0.877 ± 0.04	0.881 ± 0.043	0.853 ± 0.06	0.822 ± 0.072
UniProt Q02447-3	0.995 ± 0.021	1 ± 0.078	1.01 ± 0.033	0.984 ± 0.067	0.983 ± 0.049	1.01 ± 0.084	1.08 ± 0.055	1.05 ± 0.016
IQGAP2 (UniProt Q13576)	1.04 ± 0.017	1.08 ± 0.048	1.02 ± 0.036	1.02 ± 0.047	1.02 ± 0.034	1 ± 0.031	0.995 ± 0.021	0.959 ± 0.03
STX4 (UniProt Q12846)	1 ± 0.019	0.984 ± 0.02	0.987 ± 0.051	0.989 ± 0.052	0.941 ± 0.057	0.946 ± 0.036	0.919 ± 0.059	0.923 ± 0.039
UniProt Q10567 and related entries	0.918 ± 0.056	0.927 ± 0.032	0.956 ± 0.054	0.943 ± 0.044	0.954 ± 0.04	0.919 ± 0.051	0.921 ± 0.05	0.924 ± 0.054
SLC20A2 (UniProt Q08357)	0.951 ± 0.045	0.942 ± 0.051	0.982 ± 0.04	0.898 ± 0.047	0.965 ± 0.077	0.956 ± 0.077	0.965 ± 0.037	0.912 ± 0.15
UniProt Q13492 and related entries	1.01 ± 0.051	0.977 ± 0.063	0.965 ± 0.03	0.939 ± 0.04	0.908 ± 0.021	0.902 ± 0.015	0.884 ± 0.05	0.86 ± 0.046
UniProt Q01432 and related entries	1.09 ± 0.051	1.17 ± 0.038	1.04 ± 0.04	1.08 ± 0.062	1.03 ± 0.079	1.05 ± 0.093	0.987 ± 0.045	0.991 ± 0.12
MGAT5 (UniProt Q09328)	0.998 ± 0.027	0.97 ± 0.1	1 ± 0.073	0.981 ± 0.098	0.873 ± 0.054	0.928 ± 0.081	0.963 ± 0.042	0.95 ± 0.047
UniProt Q13136 and related entries	0.997 ± 0.021	0.994 ± 0.042	1.02 ± 0.015	1.03 ± 0.068	1.03 ± 0.067	0.985 ± 0.041	1.04 ± 0.075	1.03 ± 0.074

Single records, from the list above. Values in the order: NP40-soluble protein abundance (concentration: 0.1mM)	NP40-soluble protein abundance (concentration: 0.5mM)	NP40-soluble protein abundance (concentration: 1mM)	NP40-soluble protein abundance (concentration: 2mM)	NP40-soluble protein abundance (concentration: 4mM)	NP40-soluble protein abundance (concentration: 6mM)	NP40-soluble protein abundance (concentration: 8mM)	NP40-soluble protein abundance (concentration: 10mM)
UniProt Q13492 and related entries reads 1.01 ± 0.051	0.977 ± 0.063	0.965 ± 0.03	0.939 ± 0.04	0.908 ± 0.021	0.902 ± 0.015	0.884 ± 0.05	0.86 ± 0.046
SF3A3 (UniProt Q12874) reads 0.979 ± 0.041	1.04 ± 0.066	1.04 ± 0.05	1.02 ± 0.075	1.04 ± 0.068	1.06 ± 0.062	1.05 ± 0.083	1.04 ± 0.092
